Results taken from PubChem BioAssay AID248 (DTP/NCI, 2004).
The list is a part of this screen's results and no random one: it gathers tests that were run many times, whatever their T/C, doses with no T/C, and many T/C values between a quarter and a half above the control. Further doses and runs are listed elsewhere. T/C: endpoint of the treated group in % of that of the vehicle group. Some entries give survivors of the animals treated and no T/C: the source holds a T/C of zero for them, seemingly a mark for toxic or unscored doses. Some doses without a T/C left all or most animals alive at the check, yet need not have been tolerated: survival well below the control is almost never listed, so the zero probably covers shortened survival too. Survivors were counted at the toxicity check, usually on the fifth day, unless a day is given; later deaths do not show. Schedule codes are those of the source, read here as Q, the interval in days (D) or hours (H), X, the number of doses. Some entries hold several experiments; the values are given in rising order. For survival time, the PubChem record calls one and a half times the control and up active, and a quarter to a half above the control has no call in these data; cut-offs in other NCI protocols can differ.

Tested on: L1210 leukemia ip in BDF1 mice, survival T/C
Test: NCI In Vivo Anticancer Drug Screen. Data for tumor model L1210 Leukemia (intraperitoneal) in B6D2F1 (BDF1) mice
Details: T/C endpoint: mean survival time, higher T/C = longer survival
[1] = dose: 100.0 mg/kg/injection, schedule: Q01DX001 (ip), vehicle: saline
[2] = dose: 400.0 mg/kg/injection, schedule: Q01DX001 (ip), vehicle: saline

How did the survivor count (dose: 150.0 mg/kg/injection, schedule: Q01DX009 (ip), vehicle: Klucel (hydroxypropylcellulose) (HPC)) turn out when `O=C(Nc1cc(F)ccc1F)Oc1cccnc1` was run?
Its survivor count is 6 of 6.

What about the survivor count (dose: 200.0 mg/kg/injection, schedule: Q01DX009 (ip), vehicle: Klucel (hydroxypropylcellulose) (HPC)) of the same compound?
Its survivor count is 1 of 3.

And the survivor count (dose: 300.0 mg/kg/injection, schedule: Q01DX009 (ip), vehicle: Klucel (hydroxypropylcellulose) (HPC))?
Its survivor count is 0 of 3 and 0 of 6.

And the survivor count (dose: 400.0 mg/kg/injection, schedule: Q01DX009 (ip), vehicle: Klucel (hydroxypropylcellulose) (HPC))?
The survivor count was 1 of 3 and 6 of 6.

With `C(=C/c1ccccc1)/C[P+](c1ccccc1)(c1ccccc1)c1ccccc1` as the compound, how does the survivor count (dose: 100.0 mg/kg/injection, schedule: Q04DX003 (ip), vehicle: saline with Tween-80) read?
The survivor count was 0 of 6.

What about the survivor count (dose: 200.0 mg/kg/injection, schedule: Q04DX003 (ip), vehicle: saline with Tween-80) of the same compound?
The survivor count was 0 of 6.

What about the survivor count (dose: 400.0 mg/kg/injection, schedule: Q04DX003 (ip), vehicle: saline with Tween-80) of the same compound?
Its survivor count is 0 of 6.

How did the survivor count (dose: 200.0 mg/kg/injection, schedule: Q01DX009 (ip), vehicle: saline) turn out when `Nc1nc2ccccc2nc1N` was run?
Its survivor count is 2 of 6.

For `Cc1ccc(NC(=O)N(CCCl)N=O)cc1`, which T/C (dose: 2.0 mg/kg/injection, schedule: Q01DX015 (ip), vehicle: carboxymethylcellulose (CMC)) is on record?
The T/C was 129 % of control.

What about the survivor count (dose: 4.0 mg/kg/injection, schedule: Q01DX015 (ip), vehicle: carboxymethylcellulose (CMC)) of the same compound?
Its survivor count is 5 of 6.

And the survivor count (dose: 200.0 mg/kg/injection, schedule: Q01DX001 (ip), vehicle: carboxymethylcellulose (CMC))?
Its survivor count is 4 of 4.

What about the survivor count (dose: 400.0 mg/kg/injection, schedule: Q01DX001 (ip), vehicle: carboxymethylcellulose (CMC)) of the same compound?
Its survivor count is 4 of 4.

Which results are given for `CCCCCCC(/C=N\NC(=O)c1cccc2ccccc12)=C\c1ccccc1`?
survivor count [1]: 4 of 4; survivor count [2]: 1 of 4

Which results are given for `O=NN(CCCl)C(=O)NC1CCC(Br)CC1` (stereo not drawn)?
T/C (dose: 15.0 mg/kg/injection, schedule: Q01DX001 (ip), vehicle: saline with Tween-80): 133 % of control; T/C (dose: 168.0 mg/kg/injection, schedule: Q01DX001 (ip), vehicle: saline with Tween-80): 128 % of control

How did the survivor count [1] turn out when `CCOC(=O)/C=C(\Nc1ccc(C(c2ccccc2)(c2ccccc2)c2ccccc2)cc1)C(=O)OCC` was run?
The survivor count was 6 of 6.

And the survivor count (dose: 200.0 mg/kg/injection, schedule: Q01DX001 (ip), vehicle: saline)?
Its survivor count is 5 of 6.

What about the survivor count [2] of the same compound?
Its survivor count is 6 of 6.

For `Cc1ccc(-c2nc3ccccc3c(=O)o2)cc1`, which survivor count (dose: 200.0 mg/kg/injection, schedule: Q01DX009 (ip), vehicle: gum acacia) is on record?
The survivor count was 2 of 6 and 3 of 6.

What about the survivor count (dose: 400.0 mg/kg/injection, schedule: Q04DX003 (ip), vehicle: gum acacia) of the same compound?
Its survivor count is 0 of 6.

For `COc1ccc(C(O)C2c3c(cc4c(c3OC)OCO4)CCN2C)c(CO)c1OC` (stereo not drawn), which survivor count (dose: 300.0 mg/kg/injection, schedule: Q01DX001 (ip), vehicle: carboxymethylcellulose (CMC)) is on record?
Its survivor count is 0 of 6.

For `CCCCC1(C(C)C)C(=O)NC(=O)NC1=O`, which survivor count (dose: 300.0 mg/kg/injection, schedule: Q01DX001 (ip), vehicle: saline) is on record?
Its survivor count is 3 of 6.
